Measurements: paper PMC5216127
No constants are given. Whether binding was seen depends on the method and setting. For part of these data: In cells and extracts the contact can be indirect. Some entries that bind do so weakly or less than the wild type. For part of these data: Tags and fused reporters may be left off the sequences shown.

Sequences of proteins named here, by UniProt entry; tags and fusion partners are left off. A change or cut given only in a name is not applied to a line headed by its entry. A line that says so, or that is headed by a name, gives the form on record, which may keep a tag or linker.
Human TEAD4 (35–434, deletion 121–174) (Q15561, form named): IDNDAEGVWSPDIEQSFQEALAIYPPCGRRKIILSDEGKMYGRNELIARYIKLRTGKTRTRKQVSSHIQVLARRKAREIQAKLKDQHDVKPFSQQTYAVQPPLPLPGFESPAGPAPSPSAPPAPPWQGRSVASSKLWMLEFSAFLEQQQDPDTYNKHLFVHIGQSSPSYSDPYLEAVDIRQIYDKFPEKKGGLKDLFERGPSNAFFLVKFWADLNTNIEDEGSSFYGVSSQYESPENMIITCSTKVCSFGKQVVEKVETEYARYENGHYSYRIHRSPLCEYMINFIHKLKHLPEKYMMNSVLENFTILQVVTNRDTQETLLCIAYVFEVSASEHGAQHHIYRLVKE

Tests used:
[1] = target: Human TEAD4 (35–434, deletion 121–174) (human) (UniProt Q15561); assay: SEC; gel filtration of VGLL4, TEAD4, TCF4 and β-catenin with or without the SOX2 DNA; both purified
[2] = target: TCF4 (endogenous, HEK293T) (human (endogenous in HEK293T)) (UniProt Q9NQB0); assay: co-IP; HEK293T cells treated with or without Wnt3a for 4 h; lysates immunoprecipitated with anti-TCF4 antibody or control IgG, Protein A/G beads; endogenous proteins
[3] = target: Human TEAD4 (35–434, deletion 121–174) (human) (UniProt Q15561); assay: BLI; full length TEAD4 coated on chip; GST-tagged TCF4 constructs or GST in solution; Octet Red 96; both purified

B1: VGLL4 (203–256) (domain or fragment, UniProt Q14135 203-256)
chain: TTCDPVVEEHFRRSLGKNYKEPEPAPNSVSITGSVDDHFAKALGDTWLQIKAAK
B1 was tested. Which binding [1] did it give?
The binding was “binds”.

B2: VGLL4 (endogenous, HEK293T) (protein, UniProt Q14135 1-290)
chain: METPLDVLSRAASLVHADDEKREAALRGEPRIQTLPVASALSSHRTGPPPISPSKRKFSMEPGDEDLDCDNDHVSKMSRIFNPHLNKTANGDCRRDPRERSRSPIERAVAPTMSLHGSHLYTSLPSLGLEQPLALTKNSLDASRPAGLSPTLTPGERQQNRPSVITCASAGARNCNLSHCPIAHSGCAAPGPASYRRPPSAATTCDPVVEEHFRRSLGKNYKEPEPAPNSVSITGSVDDHFAKALGDTWLQIKAAKDGASSSPESASRRGQPASPSAHMVSHSHSPSVVS
B2 was tested. Which binding [2] did it give?
Its binding is “binds”.

For GGDDLGANDELISFKDEGEQEEKSSENSSAERDLADVKSSLVNESET (domain or fragment, UniProt Q9NQB0 8-54) [GST-tagged TCF4 (amino acids 8–54)], which binding [3] is on record?
The binding was “no binding”.
